Reference: paper PMC3489836
These are yes or no findings as the source states them, for the method shown. Binding can be weak; no strength is given.

Sequences of proteins named here, by UniProt entry; tags and fusion partners are left off.
UniProt Q94BT6: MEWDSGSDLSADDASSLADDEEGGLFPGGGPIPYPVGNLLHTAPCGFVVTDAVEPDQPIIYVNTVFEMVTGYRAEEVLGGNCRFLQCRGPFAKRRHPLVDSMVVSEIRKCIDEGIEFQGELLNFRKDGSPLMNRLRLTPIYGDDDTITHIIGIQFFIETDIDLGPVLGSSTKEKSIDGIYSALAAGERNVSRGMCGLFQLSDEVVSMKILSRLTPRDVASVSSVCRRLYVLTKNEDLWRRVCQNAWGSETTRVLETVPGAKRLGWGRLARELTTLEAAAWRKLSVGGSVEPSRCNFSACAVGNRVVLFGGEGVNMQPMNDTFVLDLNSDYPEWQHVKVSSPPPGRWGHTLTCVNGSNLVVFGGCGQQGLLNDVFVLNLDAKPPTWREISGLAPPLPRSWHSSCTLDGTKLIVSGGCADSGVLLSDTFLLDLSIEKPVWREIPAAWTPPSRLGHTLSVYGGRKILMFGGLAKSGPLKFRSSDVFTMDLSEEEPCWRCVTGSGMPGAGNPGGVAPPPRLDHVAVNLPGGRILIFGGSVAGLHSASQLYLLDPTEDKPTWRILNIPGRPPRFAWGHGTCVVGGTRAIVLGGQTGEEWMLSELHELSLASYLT

Tests used:
[1] = biological target: AtZTL (Arabidopsis thaliana ZEITLUPE) (Arabidopsis thaliana) (UniProt Q94BT6); assay: two-hybrid; Matchmaker system (Clontech), yeast AH109; ZTL fused to GAL4 DNA binding domain (bait, pGBKT7), TOC1 fused to GAL4 activation domain (prey, pGADT7); growth on medium without Leu, Trp, His, Ade and beta-galactosidase activity
[2] = biological target: NaZTL (Nicotiana attenuata ZEITLUPE) (Nicotiana attenuata) (UniProt J9PVN1); assay: as above

NaTOC1 (Nicotiana attenuata TIMING OF CAB EXPRESSION 1/PSEUDO-RESPONSE REGULATOR 1) (from UniProt J9PWT0)
binding [1]: binds
binding [2]: binds
